Test results from US7368421B2, “Use of dipeptidyl peptidase IV inhibitors in the treatment of multiple sclerosis” (Probiodrug AG, priority 2001, dated 2008).
At least one structure is not confirmed: it was looked up by name or label, or the drawing left a doubt.

The chains behind the UniProt entries cited, without tags or fusion partners. Residues count along the entry.
UniProt A0A5G2QK18, 28-502: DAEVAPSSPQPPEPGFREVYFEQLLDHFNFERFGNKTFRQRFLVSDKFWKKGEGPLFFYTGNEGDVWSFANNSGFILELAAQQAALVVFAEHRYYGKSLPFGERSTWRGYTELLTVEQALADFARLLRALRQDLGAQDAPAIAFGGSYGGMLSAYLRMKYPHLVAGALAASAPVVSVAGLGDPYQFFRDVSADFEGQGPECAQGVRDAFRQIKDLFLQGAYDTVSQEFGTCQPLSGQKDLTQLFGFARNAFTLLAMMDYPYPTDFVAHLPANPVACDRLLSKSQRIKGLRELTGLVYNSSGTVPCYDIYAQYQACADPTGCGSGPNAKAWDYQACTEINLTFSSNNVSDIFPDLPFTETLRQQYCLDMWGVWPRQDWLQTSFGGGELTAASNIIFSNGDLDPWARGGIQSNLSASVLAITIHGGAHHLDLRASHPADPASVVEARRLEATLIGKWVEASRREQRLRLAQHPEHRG

Tests used:
porcine DP II = target: T1, porcine DP II (Sus scrofa, UniProt A0A5G2QK18); experiment: Inhibition of DP IV-like enzymes, dipeptidyl peptidase II; format: biochemical
T1 construct: The enzyme used was purified from porcine kidney; from tissue; host or cells: porcine kidney
Description: DP II (3.4.14.2) releases N-terminal dipeptides from oligopeptides if the N-terminus is not protonated (McDonald, J. K., Ellis, S. & Reilly, T. J., 1966, J. Biol. Chem., 241, 1494-1501). Pro and Ala in P1-position are preferred residues. The enzyme activity is described as DP IV-like activity, but DP II has an acidic pH-optimum. The enzyme used was purified from porcine kidney.
100 μl glutaminylpyrrolidine or glutaminylthazolidine in an concentration range of 1*10^−4 M-5*10^−8M were admixed with 100 μl μl buffer solution (40 mM HEPES, pH7.6, 0.015% Brij, 1 mM DTT), 50 μl lysylalanylaminomethylcoumarine solution (5 mM) and 20 μl porcine DP II (250fold diluted in buffer solution). Fluorescence measurement was performed at 30° C. and λexiatation=380 nm, λemission=465 nm for 25 min using a plate reader (HTS7000plus, Applied Biosystems, Weiterstadt, Germany).

[1] = target: T2, recombinant human prolyl oligopeptidase (Homo sapiens, UniProt P48147); experiment: Cross reacting enzymes: prolyl oligopeptidase; format: biochemical; settings: concentration range 1*10^−4M-5*10^−8M; listed as glutaminylthazolidine
T2 construct: made in house; host or cells: E. coli
T2 sequence (P48147 1-710): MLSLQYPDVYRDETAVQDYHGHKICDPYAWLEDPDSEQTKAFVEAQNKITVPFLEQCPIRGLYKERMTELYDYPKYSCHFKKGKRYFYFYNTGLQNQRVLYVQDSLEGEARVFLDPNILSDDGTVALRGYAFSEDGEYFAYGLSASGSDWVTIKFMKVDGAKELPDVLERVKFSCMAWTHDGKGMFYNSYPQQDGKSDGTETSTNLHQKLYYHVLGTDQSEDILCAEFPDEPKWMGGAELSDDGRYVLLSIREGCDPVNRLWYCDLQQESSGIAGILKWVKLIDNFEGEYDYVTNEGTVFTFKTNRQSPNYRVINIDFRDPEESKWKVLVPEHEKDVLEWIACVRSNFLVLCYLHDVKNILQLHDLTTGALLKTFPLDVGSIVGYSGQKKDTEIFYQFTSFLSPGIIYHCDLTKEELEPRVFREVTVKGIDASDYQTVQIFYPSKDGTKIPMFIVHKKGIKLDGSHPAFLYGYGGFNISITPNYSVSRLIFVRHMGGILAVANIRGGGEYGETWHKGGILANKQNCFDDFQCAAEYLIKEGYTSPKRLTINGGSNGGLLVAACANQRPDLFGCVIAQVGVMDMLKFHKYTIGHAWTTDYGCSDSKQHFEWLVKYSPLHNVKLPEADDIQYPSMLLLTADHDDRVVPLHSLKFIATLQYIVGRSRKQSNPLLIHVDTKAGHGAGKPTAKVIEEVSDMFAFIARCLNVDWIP

[2] = target: T3, Dipeptidyl Peptidase I (DP I, Cathepsin C) (Rattus norvegicus, UniProt P80067); experiment: Cross reacting enzymes: dipeptidyl peptidase I; format: biochemical; settings: concentration range 1*10^−5M-1*10^−7M
T3 construct: purchased Qiagen GmbH, Hilden, Germany
T3 sequence (P80067 25-462): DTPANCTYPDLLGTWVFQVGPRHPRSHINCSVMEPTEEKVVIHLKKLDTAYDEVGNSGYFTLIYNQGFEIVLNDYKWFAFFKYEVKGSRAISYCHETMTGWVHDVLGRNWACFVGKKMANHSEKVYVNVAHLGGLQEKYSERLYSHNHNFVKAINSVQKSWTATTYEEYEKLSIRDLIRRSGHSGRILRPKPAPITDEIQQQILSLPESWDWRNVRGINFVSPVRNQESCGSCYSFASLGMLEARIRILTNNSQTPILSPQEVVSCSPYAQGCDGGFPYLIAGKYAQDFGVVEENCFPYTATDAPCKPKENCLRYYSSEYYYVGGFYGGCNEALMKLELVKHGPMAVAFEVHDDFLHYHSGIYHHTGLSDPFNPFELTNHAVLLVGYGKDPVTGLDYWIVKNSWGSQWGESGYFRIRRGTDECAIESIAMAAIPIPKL
Description: DP I or cathepsin C is a lysosomal cysteine protease which cleaves off dipeptides from the N-terminus of their substrates (Gutman, H. R. & Fruton, J. S., 1948, J. Biol. Chem., 174, 851-858). It is classified as a cysteine protease. The enzyme used was purchased from Qiagen (Qiagen GmbH, Hilden, Germany). In order to get a fully active enzyme, the enzyme was diluted 1000 fold in MES buffer pH5,6 (40 mM MES, 4 mM DTT, 4 mM KCl, 2 mM EDTA, 0.015% Brij) and pre-incubated for 30 min at 30° C.
50 μl glutaminylpyrrolidine or glutaminylthazolidine in a concentration range of 1*10^−5M-1*10^−7M were admixed with 110 μl buffer-enzyme-mixture. The assay mixture was pre-incubated at 30° C. for 15 min. After pre-incubation, 100 μl, histidylseryl-β-nitroaniline (2*10^−5M) was added and measurement of yellow color development due to β-nitroaniline release was performed at 30° C. and […] for 10 min., using a plate reader (HTS7000 plus, Applied Biosystems, Weiterstadt, Germany).
The IC 50-values were calculated using Graphit 4.0.15 (Erithacus Software, Ltd., UK).

[3] = cited from earlier work

Row | Compound | type of inhibition of porcine DP II (porcine DP II) | inhibition of POP activity [1] | inhibition of DP I enzyme activity [2] | inhibition of DP I enzyme activity ([2]; listed as glutaminylthazolidine) | transport of DP IV-inhibitors [3]
1 | NC(=O)CCC(N)C(=O)N1CCSC1 (stereo not drawn) [Gln-Thia, glutaminyl thiazolidine] | non-competitive type inhibitors | No inhibition | no inhibition | No inhibition | 
2 | N[C@@H](CCC(=O)NCC(=O)O)C(=O)N1CCSC1 [Glu(Gly)-Thia] |  |  |  |  | transported completely
3 | N[C@@H](CCCCNC(=O)OCc1ccc([N+](=O)[O-])cc1)C(=O)N1CCSC1 [Lys(Z-NO2)-Thia] |  |  |  |  | transported completely
